Data published in patent publication US10138233B2, “Imidazole compounds as modulators of FSHR and uses thereof” (Merck Patent GmbH, priority 2013, dated 2018).
The structures given here were assigned with low confidence; some may be wrong.

Sequences of proteins named here, by UniProt entry; tags and fusion partners are left off. Residues count along the entry.
UniProt P23945, 18-695 limits assumed: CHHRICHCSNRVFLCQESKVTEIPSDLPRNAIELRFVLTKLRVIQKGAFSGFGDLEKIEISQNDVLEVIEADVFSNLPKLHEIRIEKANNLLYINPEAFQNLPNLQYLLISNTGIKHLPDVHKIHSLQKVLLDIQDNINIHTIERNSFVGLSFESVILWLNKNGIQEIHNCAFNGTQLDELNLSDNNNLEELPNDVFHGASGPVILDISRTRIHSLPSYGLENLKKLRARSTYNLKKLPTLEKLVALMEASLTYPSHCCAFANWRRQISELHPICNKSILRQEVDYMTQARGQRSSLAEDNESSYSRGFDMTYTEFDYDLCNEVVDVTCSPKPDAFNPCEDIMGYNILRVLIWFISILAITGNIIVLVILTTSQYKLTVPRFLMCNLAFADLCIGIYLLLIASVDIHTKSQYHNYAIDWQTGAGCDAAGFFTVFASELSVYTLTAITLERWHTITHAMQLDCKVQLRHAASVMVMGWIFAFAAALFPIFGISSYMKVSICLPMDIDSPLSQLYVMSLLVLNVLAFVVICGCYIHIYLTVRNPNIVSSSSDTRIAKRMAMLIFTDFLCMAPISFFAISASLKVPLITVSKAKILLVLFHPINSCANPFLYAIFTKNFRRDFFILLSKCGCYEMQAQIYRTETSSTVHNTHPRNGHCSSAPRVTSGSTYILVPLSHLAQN
UniProt P20395, 18-692 limits assumed: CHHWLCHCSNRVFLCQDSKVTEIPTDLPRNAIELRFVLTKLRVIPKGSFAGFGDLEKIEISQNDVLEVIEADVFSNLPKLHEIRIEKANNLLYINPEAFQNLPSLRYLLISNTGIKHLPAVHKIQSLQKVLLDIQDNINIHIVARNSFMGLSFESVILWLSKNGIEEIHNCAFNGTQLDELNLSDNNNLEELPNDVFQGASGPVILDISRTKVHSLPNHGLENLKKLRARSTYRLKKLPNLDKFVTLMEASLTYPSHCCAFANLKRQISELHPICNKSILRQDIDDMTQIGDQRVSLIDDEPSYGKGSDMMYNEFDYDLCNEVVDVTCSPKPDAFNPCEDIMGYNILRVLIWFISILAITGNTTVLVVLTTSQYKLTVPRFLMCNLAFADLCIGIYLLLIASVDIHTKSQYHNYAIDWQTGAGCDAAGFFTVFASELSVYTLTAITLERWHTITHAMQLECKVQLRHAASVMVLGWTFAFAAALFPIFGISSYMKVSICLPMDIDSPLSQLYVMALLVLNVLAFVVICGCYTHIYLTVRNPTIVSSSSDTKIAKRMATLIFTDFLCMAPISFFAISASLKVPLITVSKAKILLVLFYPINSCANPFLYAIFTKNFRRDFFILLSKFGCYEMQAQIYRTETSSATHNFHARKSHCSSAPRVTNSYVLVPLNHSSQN

What was measured:
FSHR = FSHR (Homo sapiens, UniProt P23945); test: EC50 of cyclic AMP production in CHO FSHR cells + EC20 FSH (Assay A); settings: read-out: Assay A: EC50 of cyclic AMP production in CHO FSHR cells+EC20 FSH; CHO-FSHR-LUC cells, in presence of EC20 FSH, cAMP HTRF, 1 h 37° C.
[1] = molecular target: follicle-stimulating hormone (FSH) receptor (Rattus norvegicus, UniProt P20395); test: Rat Granulosa EC50 FSH (Assay B); settings: read-out: Assay B: Rat Granulosa EC50 FSH; rat granulosa cells, per Yanofsky et al. 2006

Structure (SMILES): COc1cc2c(cc1OC(C)C)-n1c(-c3cccs3)nc(C(=O)N(C)C(C)(C)C)c1CO2
- EC50 (FSHR): < 100 nM
- EC50 [1]: 1000 to 5000 nM
